Reference: patent US20090170768A1, “WATER-SOLUBLE CARBON NANOTUBE COMPOSITIONS FOR DRUG DELIVERY AND MEDICINAL APPLICATIONS” (William Marsh Rice University, priority 2007, published 2009)

Test: Paclitaxel solubilization in water with or without PEG-functionalized carbon nanotubes
Settings: PEG-functionalized carbon nanotube solution, ethanol removed by evaporation

- solubility after ethanol removal: remains in solution
SMILES: CC(=O)O[C@H]1C(=O)[C@@]2(C)[C@H]([C@H](OC(=O)c3ccccc3)[C@]3(O)C[C@H](OC(=O)[C@H](O)[C@@H](NC(=O)c4ccccc4)c4ccccc4)C(C)=C1C3(C)C)[C@]1(OC(C)=O)CO[C@@H]1C[C@@H]2O [PACLITAXEL, paclitaxel]
